PubChem BioAssay AID504808, Drosophila RNAi Screening Center, 2011

Test: 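Fly genes required to hold E2F transcription in check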 (primary screen)
System: Drosophila S2 cells
Knock-down reagent: long dsRNA against Drosophila genes
Measured: 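Firefly luciferase driven by E2F sites, normalised to Renilla luciferase on the same minimal promoter, measured by plate reader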
Direction: E2F firefly: higher = more E2F reporter activity; Renilla normaliser: higher = more normaliser reporter signal
Rule for the call: 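Called active if the normalised E2F reporter went up by over 50%; the cutoff is arbitrary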
In all, the deposit lists about 21,000 reagents; this is an unselected part of those that have a named target and a result. Over the whole deposit, 18 (0.084%) are marked active. 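Raw counts without plate normalisation, one of two replicates; the ratio scores behind the calls were not deposited.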 Names joined by + are all predicted targets of the reagent. The record does not give: the amount of reagent, the time to read-out.

E2F firefly, rep 1 | Renilla normaliser, rep 1 | activity call | Gene | dsRNA
1.02e5 | 3889 | inactive | CG15878 | DRSC08486
1.07e5 | 4702 | inactive | CG17571 | DRSC01768
1.03e5 | 4027 | inactive | CG17571 | DRSC03755
1.47e5 | 4578 | inactive | Nse4 | DRSC02239
96168 | 4161 | inactive | Sras | DRSC11287
1.41e5 | 7954 | inactive | Cyp12a4 | DRSC16620
3012 | 216 | inactive | Smyd4-3 | DRSC07041
1.56e5 | 4296 | inactive | Pp2A-29B | DRSC03400
60244 | 4354 | inactive | Gr5a | DRSC18085
75304 | 3168 | inactive | Syx5 | DRSC03432
1.03e5 | 4697 | inactive | CG9875 | DRSC04585
1.07e5 | 4255 | inactive | Tap42 | DRSC02967
1.42e5 | 4497 | inactive | CG15403 | DRSC00417
1.23e5 | 6471 | inactive | CG14907 + Mettl4 | DRSC15026
1.19e5 | 6475 | inactive | CG14907 + Mettl4 | DRSC15027
1.35e5 | 7489 | inactive | CG7785 | DRSC16311
1.09e5 | 5459 | inactive | CG33080 | DRSC18080
1.08e5 | 5208 | inactive | CG33080 | DRSC18081
1.46e5 | 6285 | inactive | CG33080 | DRSC18285
1.35e5 | 7366 | inactive | Gr68a | DRSC10803
1.57e5 | 5750 | inactive | CG13693 | DRSC00362
45296 | 177 | inactive | Fs(2)Ket | DRSC03328
1.44e5 | 6821 | inactive | flip | DRSC12326
1.12e5 | 5669 | inactive | CG17110 | DRSC15173
87104 | 4929 | inactive | ND-49L | DRSC14437
1.03e5 | 3056 | inactive | CG33521 | DRSC17179
1.30e5 | 6958 | inactive | CG33521 | DRSC17211
1.48e5 | 5365 | inactive | CG13840 | DRSC14690
1.54e5 | 5674 | inactive | CG15602 | DRSC19671
1.32e5 | 5901 | inactive | CG11425 | DRSC11657
97362 | 4210 | inactive | Act42A | DRSC04835
95202 | 3908 | inactive | Cep89 | DRSC07110
89030 | 3985 | inactive | CG13154 | DRSC06279
2.12e5 | 4545 | active | dup | DRSC07088

Laid out differently: 5 of the entries above
"E2F firefly, rep 1","Renilla normaliser, rep 1",activity call,Gene,dsRNA
1.57e5,5750,inactive,CG13693,DRSC00362
45296,177,inactive,Fs(2)Ket,DRSC03328
1.44e5,6821,inactive,flip,DRSC12326
1.12e5,5669,inactive,CG17110,DRSC15173
87104,4929,inactive,ND-49L,DRSC14437
